Laboratory results taken from article PMC10604625.
These are yes or no findings as the source states them, for the method shown. Binding calls can cover weak binding; strength is not graded here. Tags and fused reporters may be left off the sequences shown.

Target: T1, SQOR fragment S3 (301-450), yeast two-hybrid fusion (human) (UniProt Q9Y6N5)
T1 sequence: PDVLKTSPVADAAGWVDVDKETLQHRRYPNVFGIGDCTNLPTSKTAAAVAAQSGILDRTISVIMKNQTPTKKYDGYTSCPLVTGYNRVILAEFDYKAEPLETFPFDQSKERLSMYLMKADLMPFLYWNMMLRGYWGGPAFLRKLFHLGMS
Test: two-hybrid; yeast two-hybrid-based growth assay: diploid yeast in broth with serially diluted irisflorentin (IFT, up to 100 uM), spot assay on non-selective (SD/-Leu/-Trp) or selective (SD/-Ade/-His/-Leu/-Trp) plates, 30 C, 3 days, and OD600 in broth every 12 h for 48 h

glycine-alanine dipeptide repeat protein GA50, yeast two-hybrid fusion (human)
binding: binds
